One substance from patent US20080108790 (published 2008) can be followed below.

A short description of data set [1]: general procedure: Fmoc solid-phase peptide synthesis; Sieber resin; diisopropylcarbodiimide/HOBt in NMP. The conditions noted are these: late stage modification step.
A short description of data set [2]: general procedure: Fmoc solid-phase peptide synthesis; Sieber; diisopropylcarbodiimide/HOBt in NMP. The conditions noted are these: cyclisation step.

For the substance “Boc-Gly-Cyclo(Cys-Har-Gly-Asp(tBu)-Trp(Boc)-Pro-Cys)-Sieber”, the step yield in data set [1] is 98.9%. In addition, in data set [2], the cyclisation yield is on record as 100%.
